No constants are given. Whether binding was seen depends on the method and setting. Binding seen in cells or lysates may run through a third protein. Some entries that bind do so weakly or less than the wild type.
Legend:
[1] = target: focal adhesion kinase (human (endogenous in MKN1, A549, GSU, HEK293)) (UniProt Q05397); assay: co-IP; anti-FAK antibody (AHO0502, 1.0 ug) on MKN1 and A549 cell lysates (50 mM Tris, 150 mM NaCl, 1% Triton-X100), overnight, protein G beads, immunoblots; endogenous proteins
[2] = target: focal adhesion kinase (human (endogenous in MKN1, A549, GSU, HEK293)) (UniProt Q05397); assay: co-IP; anti-FAK antibody (AHO0502, 1.0 ug) on lysate of HEK293 cells transfected with the GRB7-myc/His construct, protein G beads, immunoblots
[3] = target: growth factor receptor-bound protein 7 (human (endogenous in GSU)) (UniProt Q14451); assay: co-IP; anti-GRB7 antibody (PA5-79323, 1.0 ug) on GSU cell lysate (50 mM Tris, 150 mM NaCl, 1% Triton-X100), overnight, protein G beads, immunoblots; endogenous proteins

Protein sequences, listed by entry. Tags and fused reporters are not part of them.
UniProt Q05397: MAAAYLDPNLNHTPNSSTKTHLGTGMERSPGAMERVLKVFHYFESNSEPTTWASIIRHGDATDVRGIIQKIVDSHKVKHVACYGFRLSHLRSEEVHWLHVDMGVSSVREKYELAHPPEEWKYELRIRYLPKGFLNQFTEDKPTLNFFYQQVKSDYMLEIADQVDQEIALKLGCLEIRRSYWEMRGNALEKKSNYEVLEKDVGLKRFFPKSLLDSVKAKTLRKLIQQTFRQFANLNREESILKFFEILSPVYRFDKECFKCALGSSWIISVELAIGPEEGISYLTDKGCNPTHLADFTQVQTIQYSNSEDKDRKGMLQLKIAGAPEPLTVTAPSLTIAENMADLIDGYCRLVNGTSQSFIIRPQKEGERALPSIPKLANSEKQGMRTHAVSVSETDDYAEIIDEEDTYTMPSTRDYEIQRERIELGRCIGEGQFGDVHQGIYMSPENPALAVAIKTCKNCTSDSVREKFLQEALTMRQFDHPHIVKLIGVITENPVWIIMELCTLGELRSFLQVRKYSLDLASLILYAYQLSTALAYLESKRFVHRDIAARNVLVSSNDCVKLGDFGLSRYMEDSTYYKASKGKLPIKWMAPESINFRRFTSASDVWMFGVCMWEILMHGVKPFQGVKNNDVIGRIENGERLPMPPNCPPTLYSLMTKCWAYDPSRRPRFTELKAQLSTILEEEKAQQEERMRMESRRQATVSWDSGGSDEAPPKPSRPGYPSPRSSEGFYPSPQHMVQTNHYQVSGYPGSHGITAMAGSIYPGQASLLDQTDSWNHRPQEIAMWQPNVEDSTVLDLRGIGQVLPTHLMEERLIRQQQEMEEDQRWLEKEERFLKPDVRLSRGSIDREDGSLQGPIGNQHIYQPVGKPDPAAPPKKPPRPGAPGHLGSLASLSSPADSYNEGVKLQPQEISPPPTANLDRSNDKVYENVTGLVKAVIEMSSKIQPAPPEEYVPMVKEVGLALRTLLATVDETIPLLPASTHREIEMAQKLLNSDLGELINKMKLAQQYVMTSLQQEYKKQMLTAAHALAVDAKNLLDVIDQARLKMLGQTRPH
UniProt P11940: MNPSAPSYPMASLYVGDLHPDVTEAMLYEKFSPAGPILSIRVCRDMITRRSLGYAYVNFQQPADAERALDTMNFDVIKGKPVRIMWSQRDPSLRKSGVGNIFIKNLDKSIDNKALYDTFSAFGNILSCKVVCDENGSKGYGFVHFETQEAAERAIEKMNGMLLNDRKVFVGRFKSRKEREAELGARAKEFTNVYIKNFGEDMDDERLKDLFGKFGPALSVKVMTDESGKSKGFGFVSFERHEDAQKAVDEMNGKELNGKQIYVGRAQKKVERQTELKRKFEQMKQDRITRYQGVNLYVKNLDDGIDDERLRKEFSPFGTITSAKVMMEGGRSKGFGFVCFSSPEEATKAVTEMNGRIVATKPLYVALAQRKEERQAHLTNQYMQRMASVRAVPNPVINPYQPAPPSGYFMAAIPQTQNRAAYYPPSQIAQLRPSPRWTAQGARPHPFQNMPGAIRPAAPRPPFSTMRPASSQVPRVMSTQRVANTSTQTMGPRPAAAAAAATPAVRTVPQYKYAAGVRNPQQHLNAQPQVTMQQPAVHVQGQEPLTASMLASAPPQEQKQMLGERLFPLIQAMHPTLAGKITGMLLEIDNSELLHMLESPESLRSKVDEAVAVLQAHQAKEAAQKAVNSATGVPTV
UniProt P15311: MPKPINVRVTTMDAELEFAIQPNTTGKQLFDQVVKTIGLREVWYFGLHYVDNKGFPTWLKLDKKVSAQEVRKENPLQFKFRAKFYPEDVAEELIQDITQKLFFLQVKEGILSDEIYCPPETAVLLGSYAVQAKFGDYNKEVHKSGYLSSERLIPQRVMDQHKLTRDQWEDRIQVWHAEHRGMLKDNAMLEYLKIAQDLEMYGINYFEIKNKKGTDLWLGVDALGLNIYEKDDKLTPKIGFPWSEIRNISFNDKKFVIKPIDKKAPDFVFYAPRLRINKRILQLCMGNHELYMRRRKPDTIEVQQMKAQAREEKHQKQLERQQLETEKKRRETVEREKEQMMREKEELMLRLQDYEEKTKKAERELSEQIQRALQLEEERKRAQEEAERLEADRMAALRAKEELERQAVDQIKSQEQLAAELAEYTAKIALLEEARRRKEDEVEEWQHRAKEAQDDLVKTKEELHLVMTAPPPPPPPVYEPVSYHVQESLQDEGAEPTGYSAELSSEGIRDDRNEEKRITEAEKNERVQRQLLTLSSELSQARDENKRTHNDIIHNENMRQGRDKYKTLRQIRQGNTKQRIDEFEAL
UniProt P21333: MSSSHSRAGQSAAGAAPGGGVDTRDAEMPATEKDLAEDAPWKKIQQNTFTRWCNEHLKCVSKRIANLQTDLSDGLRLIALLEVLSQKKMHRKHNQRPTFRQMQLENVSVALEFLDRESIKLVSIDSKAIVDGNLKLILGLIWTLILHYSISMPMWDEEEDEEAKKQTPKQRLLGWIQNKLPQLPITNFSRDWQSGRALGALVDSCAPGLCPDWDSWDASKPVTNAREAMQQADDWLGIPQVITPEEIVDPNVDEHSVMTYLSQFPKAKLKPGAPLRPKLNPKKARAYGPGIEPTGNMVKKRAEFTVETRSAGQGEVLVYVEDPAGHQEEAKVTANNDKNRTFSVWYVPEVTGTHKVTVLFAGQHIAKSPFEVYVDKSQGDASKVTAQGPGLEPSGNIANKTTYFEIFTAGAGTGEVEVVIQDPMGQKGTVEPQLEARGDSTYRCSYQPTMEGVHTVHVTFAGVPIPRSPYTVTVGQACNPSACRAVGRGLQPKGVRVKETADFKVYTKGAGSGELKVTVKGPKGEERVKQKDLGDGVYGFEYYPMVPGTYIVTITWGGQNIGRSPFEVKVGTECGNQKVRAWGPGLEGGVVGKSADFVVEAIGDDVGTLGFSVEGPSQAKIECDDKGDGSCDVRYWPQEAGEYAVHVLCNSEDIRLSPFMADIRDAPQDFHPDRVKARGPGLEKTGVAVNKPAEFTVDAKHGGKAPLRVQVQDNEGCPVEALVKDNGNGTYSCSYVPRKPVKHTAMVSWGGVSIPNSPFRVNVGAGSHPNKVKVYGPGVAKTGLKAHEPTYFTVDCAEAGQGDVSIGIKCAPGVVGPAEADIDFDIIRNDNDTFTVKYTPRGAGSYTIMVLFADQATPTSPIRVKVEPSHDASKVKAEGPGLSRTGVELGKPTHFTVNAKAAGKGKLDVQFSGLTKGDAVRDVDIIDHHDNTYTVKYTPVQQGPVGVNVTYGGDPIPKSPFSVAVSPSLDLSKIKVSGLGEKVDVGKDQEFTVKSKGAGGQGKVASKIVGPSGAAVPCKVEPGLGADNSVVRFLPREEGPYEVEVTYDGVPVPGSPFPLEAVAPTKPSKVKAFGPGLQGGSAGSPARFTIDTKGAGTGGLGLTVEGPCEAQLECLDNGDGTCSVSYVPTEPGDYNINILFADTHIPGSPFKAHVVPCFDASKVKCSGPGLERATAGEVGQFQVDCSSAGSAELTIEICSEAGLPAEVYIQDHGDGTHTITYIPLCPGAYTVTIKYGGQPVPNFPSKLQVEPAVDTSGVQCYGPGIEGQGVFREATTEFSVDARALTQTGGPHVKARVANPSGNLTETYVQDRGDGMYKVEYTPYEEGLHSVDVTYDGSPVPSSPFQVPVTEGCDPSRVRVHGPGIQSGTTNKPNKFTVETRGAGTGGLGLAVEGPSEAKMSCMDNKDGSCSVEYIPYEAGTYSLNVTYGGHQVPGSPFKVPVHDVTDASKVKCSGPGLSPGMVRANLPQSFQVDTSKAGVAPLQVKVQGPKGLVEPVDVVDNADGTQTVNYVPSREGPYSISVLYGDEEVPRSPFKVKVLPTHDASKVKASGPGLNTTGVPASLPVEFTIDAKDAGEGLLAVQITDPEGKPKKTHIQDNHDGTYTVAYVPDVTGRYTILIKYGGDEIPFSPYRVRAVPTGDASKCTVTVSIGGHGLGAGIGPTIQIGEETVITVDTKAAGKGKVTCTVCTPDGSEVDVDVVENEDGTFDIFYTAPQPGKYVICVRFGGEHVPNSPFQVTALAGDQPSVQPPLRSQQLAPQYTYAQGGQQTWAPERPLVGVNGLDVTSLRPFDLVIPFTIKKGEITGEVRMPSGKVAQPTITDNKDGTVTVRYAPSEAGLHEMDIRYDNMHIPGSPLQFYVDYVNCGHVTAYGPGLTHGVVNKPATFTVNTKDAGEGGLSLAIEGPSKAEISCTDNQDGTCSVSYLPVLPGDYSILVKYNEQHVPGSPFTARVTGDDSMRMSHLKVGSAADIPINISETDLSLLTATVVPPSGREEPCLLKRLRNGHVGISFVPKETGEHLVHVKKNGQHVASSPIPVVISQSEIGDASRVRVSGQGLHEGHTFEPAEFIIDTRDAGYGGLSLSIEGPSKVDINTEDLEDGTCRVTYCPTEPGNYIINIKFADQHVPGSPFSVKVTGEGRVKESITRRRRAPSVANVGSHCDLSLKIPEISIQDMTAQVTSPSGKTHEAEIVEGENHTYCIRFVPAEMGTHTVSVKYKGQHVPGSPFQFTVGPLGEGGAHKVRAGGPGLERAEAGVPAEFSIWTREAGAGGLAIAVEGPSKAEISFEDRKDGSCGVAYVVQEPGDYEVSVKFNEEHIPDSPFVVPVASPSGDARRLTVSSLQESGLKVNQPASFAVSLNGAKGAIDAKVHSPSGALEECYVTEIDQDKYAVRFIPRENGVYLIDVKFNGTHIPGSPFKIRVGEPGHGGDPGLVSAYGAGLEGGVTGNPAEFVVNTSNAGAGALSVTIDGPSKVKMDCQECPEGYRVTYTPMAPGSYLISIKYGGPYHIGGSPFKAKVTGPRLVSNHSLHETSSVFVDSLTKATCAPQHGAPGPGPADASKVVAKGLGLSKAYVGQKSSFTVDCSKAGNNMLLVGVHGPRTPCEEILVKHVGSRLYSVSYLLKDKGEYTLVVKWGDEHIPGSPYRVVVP

Row | Substance | binding [1] | also measured
1 | poly-A binding protein cytoplasmic 1 (from UniProt P11940 1-636) | binds | 
2 | GRB7-myc/His (from UniProt Q14451 1-532) |  | binding [2]: binds
3 | Ezrin (from UniProt P15311 1-586) | binds | 
4 | focal adhesion kinase (from UniProt Q05397 1-1052) |  | binding [3]: binds
5 | filamin A (from UniProt P21333 1-2647) | binds | 

Source: paper PMC7567837
